Laboratory results as given in PMC11714167.

Biological target: T1, IKKα (UniProt O15111)
T1 sequence: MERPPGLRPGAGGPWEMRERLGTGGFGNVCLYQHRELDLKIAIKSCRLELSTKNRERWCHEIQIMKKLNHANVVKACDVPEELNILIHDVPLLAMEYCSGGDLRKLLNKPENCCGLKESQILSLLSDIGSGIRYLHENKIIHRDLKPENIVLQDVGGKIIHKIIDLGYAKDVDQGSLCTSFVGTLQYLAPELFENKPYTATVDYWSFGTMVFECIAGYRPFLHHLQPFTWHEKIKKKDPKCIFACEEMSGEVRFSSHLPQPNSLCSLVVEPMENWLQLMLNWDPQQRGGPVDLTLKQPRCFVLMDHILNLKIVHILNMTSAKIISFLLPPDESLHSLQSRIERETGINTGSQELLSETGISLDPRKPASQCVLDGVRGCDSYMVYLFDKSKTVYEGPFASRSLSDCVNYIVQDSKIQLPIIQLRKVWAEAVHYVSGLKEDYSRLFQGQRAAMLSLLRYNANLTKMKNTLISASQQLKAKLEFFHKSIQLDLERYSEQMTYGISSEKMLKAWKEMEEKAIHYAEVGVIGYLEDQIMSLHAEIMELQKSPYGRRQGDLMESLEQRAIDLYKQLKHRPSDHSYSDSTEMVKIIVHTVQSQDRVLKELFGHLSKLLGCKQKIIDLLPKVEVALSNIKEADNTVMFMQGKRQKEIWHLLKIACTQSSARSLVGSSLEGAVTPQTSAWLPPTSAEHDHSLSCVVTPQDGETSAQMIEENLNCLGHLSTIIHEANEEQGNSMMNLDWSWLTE
Assay: co-IP; co-IP of AXL with NF-κB signalling proteins (Figure S24A,B) and of AKT with IKKα (Figure S24D); cells not given

binding: binds
Substance: AKT (enzyme)

No constants are given. Whether binding was seen depends on the method and setting. In cells and extracts the contact can be indirect. Binding can be weak; no strength is given.
